Results are given in words; binding and its absence hold for the method and conditions named. Binding seen in cells or lysates may run through a third protein. These calls come from enrichment with a bait or labelling near it, and not all partners need be listed.
B1: WDR1 (protein, UniProt O88342 1-606)
chain: MPYEIKKVFASLPQVERGVSKILGGDPKGDHFLYTNGKCVILRNIDNPAIADIYTEHAHQVVVAKYAPSGFYIASGDISGKLRIWDTTQKEHLLKYEYQPFAGKIKDIAWTEDSKRIAVVGEGREKFGAVFLWDTGSSVGEITGHNKVINSVDIKQTRPYRLATGSDDNCAAFFEGPPFKFKFTIGDHSRFVNCVRFSPDGNRFATASADGQIFIYDGKTGEKVCALGESKAHDGGIYAISWSPDSTHLLSASGDKTSKIWDVNVNSVVSTFPMGSNVLDQQLGCLWQKDHLLSISLSGYINYLDKNNPSKPLRVIKGHSKSIQCLTVHRNGGKSYIYSGSHDGHINYWDSETGENDSFSGKGHTNQVSRMTVNESEQLVSCSMDDTVRYTNLTLRDYSGQGVVKLDVQPKCVAVGPGGYTVVVCIGQIVLLKDQKKCFSIDNPGYEPEVVAVHPGGDTVAVGGTDGNVRVYSILASTLKDEGKLLEAKGPVTDVAYSHDGAFLAVCDASKVVTVFSVADGYSENNVFYGHHAKIVCLAWSPDNEHFASGGMDMMVYVWTLSDPETKVKIQDAHRLHHVSSLAWLDEHTLVTTSHDASVKEWTITY
B2: elongator protein complex 1 (ELP1) (protein, UniProt Q7TT37 1-1333)
chain: MRNLKLHRTLEFRDIQAPGKPQCFCLRAEQGTVLIGSERGLTEVDPVRREVKTEISLVAEGFLPEDGSGCIVGIQDLLDQESVCVATASGDVIVCNLSTQQLECVGSVASGISVMSWSPDQELLLLATAQQTLIMMTKDFEVIAEEQIHQDDFGEGKFVTVGWGSKQTQFHGSEGRPTAFPVQLPENALPWDDRRPHITWRGDGQYFAVSVVCRQTEARKIRVWNREFALQSTSESVPGLGPALAWKPSGSLIASTQDKPNQQDVVFFEKNGLLHGHFTLPFLKDEVKVNDLLWNADSSVLAIWLEDLPKEDSSTLKSYVQLWTVGNYHWYLKQSLPFSTTGKNQIVSLLWDPVTPCRLHVLCTGWRYLCCDWHWTTDRSSGNSANDLANVAVIDGNRVLVTVFRQTVVPPPMCTYRLLIPHPVNQVIFSAHLGNDLAVLDASNQISVYKCGDKPNMDSTVKLGAVGGNGFKVPLTTPHLEKRYSIQFGNNEEEEEEEVNALQLSFLTWVEDDTFLAISYSHSSSQSIIHHLTVTHSEVDEEQGQLDVSSSVTVDGVVIGLCCCSKTKSLAVQLADGQVLKYLWESPSLAVEPWKNSEGIPVRFVHPCTQMEVATIGGEECVLGLTDRCRFFINDTEVASNITSFAVCDDFLLVTTHSHTCQVFSLSGASLKMLQAALSGSHEASGEILRKVERGSRIVTVVPQDTKLILQMPRGNLEVVHHRALVLAQIRKWLDKLMFKEAFECMRKLRINLNLIHDHNPKVFLENVETFVKQIDSVNHINLFFTELREEDVTKTMYPPPITKSVQVSTHPDGKKLDLICDAMRAAMEAINPRKFCLSILTSHVKKTTPELEIVLQKVQELQGNLPFDPESVSVEEALKYLLLLVDVNELFNHSLGTYDFNLVLMVAEKSQKDPKEYLPFLNTLKKMETNYQRFTIDKYLKRYEKALGHLSKCGPEYFTECLNLIKDKNLYKEALKLYRPDSPQYQAVSMAYGEHLMQEHLYEPAGLVFARCGAQEKALEAFLACGSWQQALCVAAQLQMSKDKVAGLARTLAGKLVEQRKHSEAATVLEQYAQDYEEAVLLLLEGSAWEEALRLVYKYDRVDIIETSVKPSILEAQKNYMDFLDSETATFIRHKNRLQVVRALRRQAPQVHVDHEVAHGPESDLFSETSSIMSGSEMSGRYSHSNSRISARSSKNRRKAERKKHSLKEGSPLEGLALLEALSEVVQSVEKLKDEVRAILKVLFLFEFEEQAKELQRAFESTLQLMERAVPEIWTPAGQQSSTTPVLGPSSTANSITASYQQQKTCVPALDAGVYMPPKMDPRSQWKLSLLE

Protein sequences, listed by entry. Tags and fused reporters are not part of them.
UniProt Q08642: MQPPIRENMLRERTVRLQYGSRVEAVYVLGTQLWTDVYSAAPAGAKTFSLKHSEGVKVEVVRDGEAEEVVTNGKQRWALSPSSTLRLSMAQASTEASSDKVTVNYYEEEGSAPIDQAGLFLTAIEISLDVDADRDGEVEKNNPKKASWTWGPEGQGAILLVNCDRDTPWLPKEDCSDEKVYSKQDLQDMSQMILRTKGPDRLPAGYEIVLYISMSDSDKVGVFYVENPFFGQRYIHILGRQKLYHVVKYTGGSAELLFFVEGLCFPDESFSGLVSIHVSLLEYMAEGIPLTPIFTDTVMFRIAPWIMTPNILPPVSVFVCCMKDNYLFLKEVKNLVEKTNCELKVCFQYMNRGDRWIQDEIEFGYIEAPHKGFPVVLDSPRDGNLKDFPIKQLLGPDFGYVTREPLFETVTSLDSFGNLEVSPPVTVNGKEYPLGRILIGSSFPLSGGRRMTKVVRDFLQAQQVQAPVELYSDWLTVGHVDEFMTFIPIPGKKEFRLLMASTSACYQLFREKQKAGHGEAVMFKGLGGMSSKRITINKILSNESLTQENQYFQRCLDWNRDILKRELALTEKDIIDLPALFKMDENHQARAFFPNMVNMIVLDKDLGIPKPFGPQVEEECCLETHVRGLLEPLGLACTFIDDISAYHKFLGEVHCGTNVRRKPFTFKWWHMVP
UniProt P70168: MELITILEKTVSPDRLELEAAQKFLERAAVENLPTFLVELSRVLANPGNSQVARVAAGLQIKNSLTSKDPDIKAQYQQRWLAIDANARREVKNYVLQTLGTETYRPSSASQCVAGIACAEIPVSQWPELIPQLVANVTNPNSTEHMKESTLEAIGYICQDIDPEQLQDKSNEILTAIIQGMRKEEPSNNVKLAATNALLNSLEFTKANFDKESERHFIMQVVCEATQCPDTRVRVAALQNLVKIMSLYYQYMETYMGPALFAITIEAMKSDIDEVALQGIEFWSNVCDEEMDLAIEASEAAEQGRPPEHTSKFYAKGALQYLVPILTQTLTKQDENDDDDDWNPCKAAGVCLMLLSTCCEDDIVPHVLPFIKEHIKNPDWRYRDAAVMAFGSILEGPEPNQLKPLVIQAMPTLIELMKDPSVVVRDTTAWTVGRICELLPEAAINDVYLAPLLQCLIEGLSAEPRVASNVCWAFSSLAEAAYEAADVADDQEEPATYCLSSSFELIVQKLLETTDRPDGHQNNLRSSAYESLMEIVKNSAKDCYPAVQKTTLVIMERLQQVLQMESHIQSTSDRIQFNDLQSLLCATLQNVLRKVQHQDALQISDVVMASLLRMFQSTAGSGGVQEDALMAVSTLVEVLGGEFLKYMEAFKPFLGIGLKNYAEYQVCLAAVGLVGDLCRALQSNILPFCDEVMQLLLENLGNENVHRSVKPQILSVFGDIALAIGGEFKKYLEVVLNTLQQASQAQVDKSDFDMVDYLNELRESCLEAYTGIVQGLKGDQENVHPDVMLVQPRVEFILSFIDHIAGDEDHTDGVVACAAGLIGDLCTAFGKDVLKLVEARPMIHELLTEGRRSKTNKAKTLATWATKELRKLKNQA
UniProt P19096: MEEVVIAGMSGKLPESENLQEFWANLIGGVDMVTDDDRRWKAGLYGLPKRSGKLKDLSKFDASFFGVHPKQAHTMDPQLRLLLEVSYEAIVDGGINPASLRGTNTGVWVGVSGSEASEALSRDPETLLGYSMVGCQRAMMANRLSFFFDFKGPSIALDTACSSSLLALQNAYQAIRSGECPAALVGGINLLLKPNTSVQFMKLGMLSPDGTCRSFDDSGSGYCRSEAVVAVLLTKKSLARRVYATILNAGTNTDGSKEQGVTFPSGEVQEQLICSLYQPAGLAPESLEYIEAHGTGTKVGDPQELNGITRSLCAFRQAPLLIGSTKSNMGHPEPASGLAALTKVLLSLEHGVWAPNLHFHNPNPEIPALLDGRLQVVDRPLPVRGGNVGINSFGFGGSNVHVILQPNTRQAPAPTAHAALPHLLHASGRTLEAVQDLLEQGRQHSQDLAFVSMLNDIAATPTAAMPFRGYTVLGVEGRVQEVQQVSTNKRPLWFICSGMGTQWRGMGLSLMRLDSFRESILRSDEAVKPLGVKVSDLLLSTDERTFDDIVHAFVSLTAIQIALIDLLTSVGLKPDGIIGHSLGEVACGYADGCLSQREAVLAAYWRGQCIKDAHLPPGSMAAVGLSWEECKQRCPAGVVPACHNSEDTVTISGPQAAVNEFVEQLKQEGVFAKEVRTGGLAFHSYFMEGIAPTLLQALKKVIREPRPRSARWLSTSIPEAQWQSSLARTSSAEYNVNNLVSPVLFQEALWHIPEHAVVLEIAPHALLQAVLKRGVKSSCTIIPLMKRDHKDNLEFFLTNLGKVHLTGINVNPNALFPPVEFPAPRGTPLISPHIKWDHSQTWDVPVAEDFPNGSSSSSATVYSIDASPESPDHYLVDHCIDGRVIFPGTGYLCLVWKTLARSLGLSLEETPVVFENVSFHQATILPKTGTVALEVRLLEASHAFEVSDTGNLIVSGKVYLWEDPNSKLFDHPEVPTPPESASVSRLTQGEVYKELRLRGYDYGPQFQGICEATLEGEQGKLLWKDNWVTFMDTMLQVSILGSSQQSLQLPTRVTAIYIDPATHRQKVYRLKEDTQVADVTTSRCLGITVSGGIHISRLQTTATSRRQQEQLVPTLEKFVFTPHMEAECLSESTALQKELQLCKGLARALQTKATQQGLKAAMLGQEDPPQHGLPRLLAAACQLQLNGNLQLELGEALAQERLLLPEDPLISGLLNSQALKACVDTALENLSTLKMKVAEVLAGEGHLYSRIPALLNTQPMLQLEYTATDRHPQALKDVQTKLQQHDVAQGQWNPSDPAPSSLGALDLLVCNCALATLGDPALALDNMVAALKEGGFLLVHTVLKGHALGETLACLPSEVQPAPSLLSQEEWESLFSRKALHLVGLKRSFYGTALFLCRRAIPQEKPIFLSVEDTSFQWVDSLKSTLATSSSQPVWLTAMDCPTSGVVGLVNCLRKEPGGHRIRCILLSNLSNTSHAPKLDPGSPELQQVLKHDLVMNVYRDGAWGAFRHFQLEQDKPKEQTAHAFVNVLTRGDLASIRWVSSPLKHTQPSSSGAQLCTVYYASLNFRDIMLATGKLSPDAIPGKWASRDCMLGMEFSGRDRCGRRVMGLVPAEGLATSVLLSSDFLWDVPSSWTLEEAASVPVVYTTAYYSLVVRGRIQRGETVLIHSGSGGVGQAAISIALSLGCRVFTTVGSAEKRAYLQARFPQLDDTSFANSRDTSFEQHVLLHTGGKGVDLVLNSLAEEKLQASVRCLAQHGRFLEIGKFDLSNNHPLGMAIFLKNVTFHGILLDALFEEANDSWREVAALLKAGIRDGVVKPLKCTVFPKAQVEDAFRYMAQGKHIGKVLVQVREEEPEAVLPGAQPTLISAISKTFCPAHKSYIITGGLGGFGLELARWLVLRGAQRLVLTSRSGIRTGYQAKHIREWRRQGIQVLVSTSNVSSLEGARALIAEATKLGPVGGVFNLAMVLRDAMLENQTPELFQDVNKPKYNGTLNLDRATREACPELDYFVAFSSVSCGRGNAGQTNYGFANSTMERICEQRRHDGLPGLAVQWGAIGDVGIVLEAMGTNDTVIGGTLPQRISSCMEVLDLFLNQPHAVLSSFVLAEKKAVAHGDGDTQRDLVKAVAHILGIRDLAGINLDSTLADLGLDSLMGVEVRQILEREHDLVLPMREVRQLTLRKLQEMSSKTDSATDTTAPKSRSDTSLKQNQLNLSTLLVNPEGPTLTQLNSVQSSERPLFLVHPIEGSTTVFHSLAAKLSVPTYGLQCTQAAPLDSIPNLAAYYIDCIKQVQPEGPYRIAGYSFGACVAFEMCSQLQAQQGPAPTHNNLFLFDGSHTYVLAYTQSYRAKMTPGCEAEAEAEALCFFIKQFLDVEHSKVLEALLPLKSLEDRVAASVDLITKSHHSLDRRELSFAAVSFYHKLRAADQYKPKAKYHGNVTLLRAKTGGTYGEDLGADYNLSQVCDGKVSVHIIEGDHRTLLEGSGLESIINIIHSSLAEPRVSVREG

molecular target: biotin-tagged PADI2 (peptidylarginine deiminase 2) (UniProt Q08642); assay: affinity purification with mass spectrometry

binding | Molecule
binds | KPNB1 (from UniProt P70168 1-876)
binds | FASN (from UniProt P19096 1-2504)
binds | B1
binds | B2

— paper doi:10.1101/425348
